{"source": "PubChem BioAssay AID1259314 (Drosophila RNAi Screening Center, 2017)", "test": "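Modifiers of manganese chloride toxicity in fly cells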 (primary screen)", "cell system": "Drosophila S2R+ cells", "knock-down reagent": "long dsRNA against Drosophila genes", "time to read-out": "5 days (4 days knock-down, then 1 day metal exposure)", "treatment": "manganese chloride added to 15 mM for 24 hours", "read-out": "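Luciferase ATP signal used as a proxy for viable cell number, reported as one averaged z-score per dsRNA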", "scale": "mean ATP z-score: higher = more ATP than the plate average, more viable cells under manganese", "rule for the call": "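Called active when the mean ATP z-score is above 1.5 or below -1.5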", "meaning of the calls": "active = strong ATP change, up or down; inactive = no strong ATP change", "note": "The deposit covers about 3,100 reagents; shown is an unselected part. 289 of them (9.3%) count as active. 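Active includes both higher and lower ATP than plate average; check the z-score sign for direction.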 Names joined by + are all predicted targets of the reagent. Not given: the amount of reagent."}
{"target": "cue (cueball)", "amplicon": "DRSC08248", "mean ATP z-score": -0.613, "outcome": "inactive"}
{"target": "cue (cueball)", "amplicon": "DRSC39507", "mean ATP z-score": -0.203, "outcome": "inactive"}
{"target": "Dh44-R1 (Diuretic hormone 44 receptor 1)", "amplicon": "DRSC07172", "mean ATP z-score": 0.654, "outcome": "inactive"}
{"target": "Dh44-R1 (Diuretic hormone 44 receptor 1)", "amplicon": "DRSC28984", "mean ATP z-score": -1.24, "outcome": "inactive"}
{"target": "arr (arrow)", "amplicon": "DRSC07451", "mean ATP z-score": 0.267, "outcome": "inactive"}
{"target": "arr (arrow)", "amplicon": "DRSC27035", "mean ATP z-score": 0.126, "outcome": "inactive"}
{"target": "Tsp33B (Tetraspanin 33B)", "amplicon": "DRSC02418", "mean ATP z-score": -0.102, "outcome": "inactive"}
{"target": "Tsp33B (Tetraspanin 33B)", "amplicon": "DRSC28982", "mean ATP z-score": -0.515, "outcome": "inactive"}
{"target": "CG8837", "amplicon": "DRSC00711", "mean ATP z-score": 0.0816, "outcome": "inactive"}
{"target": "CG8837", "amplicon": "DRSC29440", "mean ATP z-score": -0.494, "outcome": "inactive"}
{"target": "ZnT35C (Zinc transporter 35C)", "amplicon": "DRSC01959", "mean ATP z-score": -0.667, "outcome": "inactive"}
{"target": "ZnT35C (Zinc transporter 35C)", "amplicon": "DRSC39419", "mean ATP z-score": 6.89, "outcome": "active"}
{"target": "CR32011 + CR32009 + PlexB + 1 more", "amplicon": "DRSC21664", "mean ATP z-score": -0.384, "outcome": "inactive"}
{"target": "CR32011 + CR32009 + PlexB + 1 more", "amplicon": "DRSC26099", "mean ATP z-score": 0.991, "outcome": "inactive"}
{"target": "Or59a (Odorant receptor 59a)", "amplicon": "DRSC04631", "mean ATP z-score": 0.0471, "outcome": "inactive"}
{"target": "Or59a (Odorant receptor 59a)", "amplicon": "DRSC39825", "mean ATP z-score": 0.28, "outcome": "inactive"}
{"target": "Spase25 (Spase 25-subunit)", "amplicon": "DRSC19776", "mean ATP z-score": -0.596, "outcome": "inactive"}
{"target": "Spase25 (Spase 25-subunit)", "amplicon": "DRSC39745", "mean ATP z-score": 0.545, "outcome": "inactive"}
{"target": "CG8468", "amplicon": "DRSC07190", "mean ATP z-score": 0.0155, "outcome": "inactive"}
{"target": "CG8468", "amplicon": "DRSC26347", "mean ATP z-score": 1.36, "outcome": "inactive"}

3 successive records from above:
{"target": "Spase25 (Spase 25-subunit)", "amplicon": "DRSC39745", "mean ATP z-score": 0.545, "outcome": "inactive"}
{"target": "CG8468", "amplicon": "DRSC07190", "mean ATP z-score": 0.0155, "outcome": "inactive"}
{"target": "CG8468", "amplicon": "DRSC26347", "mean ATP z-score": 1.36, "outcome": "inactive"}
